Reference: patent US20120107330A1 (published 2012)
Where a chain is given by its changes, count along the chain named. These are yes or no findings as the source states them, for the method shown. Some results given as binding are weak or reduced against the parent protein; the word gives no strength. Ends that are not written are not given here.

Chains of the proteins cited; added tags and fusions are not shown. Lines headed by an entry give the natural chain unless they say otherwise; changes in a name come on top. Residues count along the entry.
UniProt P07724, residues 25-608: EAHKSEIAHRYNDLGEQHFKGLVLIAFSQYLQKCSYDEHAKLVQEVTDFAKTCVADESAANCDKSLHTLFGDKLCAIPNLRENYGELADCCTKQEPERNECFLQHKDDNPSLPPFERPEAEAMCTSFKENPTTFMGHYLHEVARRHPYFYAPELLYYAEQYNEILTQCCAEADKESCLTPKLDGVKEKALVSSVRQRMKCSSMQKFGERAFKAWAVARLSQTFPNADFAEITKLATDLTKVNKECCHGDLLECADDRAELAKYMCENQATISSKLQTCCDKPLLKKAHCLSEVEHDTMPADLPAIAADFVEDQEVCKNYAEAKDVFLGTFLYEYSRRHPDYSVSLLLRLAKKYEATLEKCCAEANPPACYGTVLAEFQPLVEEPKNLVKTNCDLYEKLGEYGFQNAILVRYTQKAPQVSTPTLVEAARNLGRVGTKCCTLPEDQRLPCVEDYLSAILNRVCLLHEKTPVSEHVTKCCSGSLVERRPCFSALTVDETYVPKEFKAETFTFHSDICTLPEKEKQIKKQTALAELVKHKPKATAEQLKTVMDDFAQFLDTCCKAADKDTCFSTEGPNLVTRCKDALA
UniProt P19438: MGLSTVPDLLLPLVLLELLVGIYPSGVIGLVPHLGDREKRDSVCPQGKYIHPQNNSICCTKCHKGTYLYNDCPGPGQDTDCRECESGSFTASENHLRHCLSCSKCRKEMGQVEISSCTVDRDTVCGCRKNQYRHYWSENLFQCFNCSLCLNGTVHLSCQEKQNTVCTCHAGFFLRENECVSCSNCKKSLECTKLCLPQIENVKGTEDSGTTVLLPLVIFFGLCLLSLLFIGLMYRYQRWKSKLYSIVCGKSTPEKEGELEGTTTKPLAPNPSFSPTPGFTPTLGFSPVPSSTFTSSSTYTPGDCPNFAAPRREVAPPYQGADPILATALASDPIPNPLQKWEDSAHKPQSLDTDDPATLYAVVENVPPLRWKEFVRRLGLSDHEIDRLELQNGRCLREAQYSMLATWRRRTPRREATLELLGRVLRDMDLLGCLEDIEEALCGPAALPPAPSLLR

What was measured:
[1] = molecular target: T1, mouse TNFR1 (recombinant, R&D Systems cat no. 425-R1-050/CF, biotinylated) (mouse) (UniProt P25118); test: BIAcore, mouse TNFR1 on chip
T1 sequence (biotinylated with EZ-Link NHS-LC-LC-biotin, looked up): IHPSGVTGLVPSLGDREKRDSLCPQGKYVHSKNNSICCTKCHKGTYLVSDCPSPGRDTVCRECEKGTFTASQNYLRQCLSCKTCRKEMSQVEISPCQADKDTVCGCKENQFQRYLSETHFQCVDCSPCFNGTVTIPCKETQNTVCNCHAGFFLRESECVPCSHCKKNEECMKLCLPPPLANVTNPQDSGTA

[2] = molecular target: T1, mouse TNFR1 (recombinant, R&D Systems cat no. 425-R1-050/CF, biotinylated) (mouse); test: BIAcore, mouse TNFR1 on SA chip
[3] = molecular target: T1, mouse TNFR1 (recombinant, R&D Systems cat no. 425-R1-050/CF, biotinylated) (mouse); test: BIAcore, mouse TNFR1 on SA chip, dAb at 1 µM
[4] = molecular target: T1, mouse TNFR1 (recombinant, R&D Systems cat no. 425-R1-050/CF, biotinylated) (mouse); test: BIAcore, mouse TNFR1 on SA chip, after DOM1m-21-23 as competitor
[5] = molecular target: T1, mouse TNFR1 (recombinant, R&D Systems cat no. 425-R1-050/CF, biotinylated) (mouse); test: BIAcore, biotinylated mouse TNFR1 on SA chip, dAb at 1 µM
[6] = molecular target: T1, mouse TNFR1 (recombinant, R&D Systems cat no. 425-R1-050/CF, biotinylated) (mouse); test: BIAcore, biotinylated mouse TNFR1 on SA chip, dAb injected alone and after DOM1m-21-23 (concentrations not given)
[7] = molecular target: T1, mouse TNFR1 (recombinant, R&D Systems cat no. 425-R1-050/CF, biotinylated) (mouse); test: BIAcore, biotinylated mouse TNFR1 on SA chip (concentration not given)
[8] = molecular target: T2, mouse serum albumin (MSA, Sigma-Aldrich) (mouse, UniProt P07724 25-608); test: BIAcore off-rates, MSA on chip, AlbudAb in the fusion
T2 construct: also called mouse albumin

[9] = molecular target: T2, mouse serum albumin (MSA, Sigma-Aldrich); test: BIAcore, MSA coupled to CM5 chip (EDC/NHS), construct at 1 µM
[10] = molecular target: TNFR1-Fc fusion (R&D Systems Cat #372-RI) (human) (UniProt P19438); test: receptor binding assay: TNFR1-Fc on beads incubated with the dAb, then with TNFα (blocked ligand); % inhibition of TNFα binding to TNFR1
[11] = molecular target: TNFR1-Fc fusion (R&D Systems Cat #372-RI) (human) (UniProt P19438); test: receptor binding assay: TNFR1-Fc on anti-IgG beads, dAb titrated, blocked ligand TNFα detected with biotinylated anti-TNFα and fluorescent streptavidin (FMAT)

B1: DOM1h-574-16 (other)
VH: EVQLLESGGGLVQPGGSLRLSCAASGFTFVKYSMGWVRQAPGKGPEWVSQISNTGDRTYYADSVKGRFTISRDNSKNTLYLQMNSLRAEDTAVYYCAIYTGRWEPFDYWGQGTLVTVSS
notes: VH dAb; also called DOM1h-57-16 [sic]; the DOM0100 dAb
With B1 the binding [1] was “binds”, the binding [2] was “binds” and the binding [3] was “binds”. The binding [4] was “binds”, the binding [5] was “binds” and the binding [6] was “binds”.

B2: DOM1h-574-72 (other)
VH: B1 VH with P45L, G55A, D62H, E104V, D107E
notes: VH dAb; expressed in E. coli, purified on Protein A
With B2 the binding [2] was “binds”.

B3: DOM1h-574-139 (other)
VH: B1 VH with V30L, P45L, N53D, G55A, D62H, E104A, D107E
notes: VH dAb
With B3 the binding [2] was “binds”.

B4: DOM1h-574-156 (other)
VH: B1 VH with V30F, P45L, N53D, G55A, D62H, E104V, D107E
notes: VH dAb
With B4 the binding [2] was “binds”.

B5: DOM1m-21-23 (other)
VH: EVQLLESGGGLVQPGGSLRLSCAASGFTFNRYSMGWLRQAPGKGLEWVSRIDSYGRGTYYEDPVKGRFSISRDNSKNTLYLQMNSLRAEDTAVYYCAKISQFGSNAFDYWGQGTQVTVSS
notes: VH dAb; also called DOM1m-12-23 [sic]
With B5 the binding [7] was “binds”.

B6: DMS0191 (bispecific antibody)
chain: EVQLLESGGGLVQPGGSLRLSCAASGFTFVKYSMGWVRQAPGKGPEWVSQISNTGDRTYYADSVKGRFTISRDNSKNTLYLQMNSLRAEDTAVYYCAIYTGRWEPFDYWGQGTLVTVSSASTDIQMTQSPSSLSASVGDRVTITCRASQSIIKHLKWYQQKPGKAPKLLIYGASRLQSGVPSRFSGSGSGTDFTLTISSLQPEDFATYYCQQGTRWPQTFGQGTKVEIKRAAAEQKLISEEDLN
notes: anti-TNFR1 dAb / AlbudAb in-line fusion
In the case of B6, the binding [8] is reported as “binds” and the binding [9] is reported as “binds”.

B7: DOM1h-131-511 (other)
VH: EVQLLESGGGLVQPGGSLRLSCAASGFTFAHETMVWVRQAPGKGLEWVSHIPPVGQDPFYADSVKGRFTISRDNSKNTLYLQMNSLRAEDTAVYYCALLPKRGPWFDYWGQGTLVTVSS
notes: also called control dAb
B7 was tested, and the binding [10] was “binds” and the binding [11] was “binds”.

B8: DOM1h-574-109 (other)
VH: B1 VH with P45L, N53D, G55A, D62H, E104V, D107E
notes: VH dAb
For B8, the binding [2] was “binds”.

B9: DOM1h-574-133 (other)
VH: B1 VH with P45L, N53D, G55A, A61D, D62H, D107V
notes: VH dAb
In the case of B9, the binding [2] is reported as “binds”.

B10: DOM1h-574-135 (other)
VH: B1 VH with P45L, N53D, G55A, A61T, D62H, E104V, D107E
notes: VH dAb
For B10, the binding [2] was “binds”.

B11: DOM1h-574-138 (other)
VH: B1 VH with V30F, P45L, N53D, G55A, D62H, E104A, D107E
notes: VH dAb
B11 was tested, and the binding [2] was “binds”.

B12: DOM1h-574-155 (other)
VH: B1 VH with V30L, P45L, N53D, G55A, D62H, E104V, D107E
notes: VH dAb
With B12 the binding [2] was “binds”.

B13: DOM1h-574-162 (other)
VH: B1 VH with V30F, P45L, N53D, G55A, A61S, D62H, E104V, D107E
notes: VH dAb
With B13 the binding [2] was “binds”.
